± gives the standard deviation of the averaged measurements. Some of the results follow.
Assays:
Assay in all cases: NP40-soluble protein abundance relative to vehicle (solubility fold change) (ratio); higher = more soluble protein in presence of GTP
UniProt Q02040 = molecular target: T1, UniProt Q02040
T1 sequence (whole entry): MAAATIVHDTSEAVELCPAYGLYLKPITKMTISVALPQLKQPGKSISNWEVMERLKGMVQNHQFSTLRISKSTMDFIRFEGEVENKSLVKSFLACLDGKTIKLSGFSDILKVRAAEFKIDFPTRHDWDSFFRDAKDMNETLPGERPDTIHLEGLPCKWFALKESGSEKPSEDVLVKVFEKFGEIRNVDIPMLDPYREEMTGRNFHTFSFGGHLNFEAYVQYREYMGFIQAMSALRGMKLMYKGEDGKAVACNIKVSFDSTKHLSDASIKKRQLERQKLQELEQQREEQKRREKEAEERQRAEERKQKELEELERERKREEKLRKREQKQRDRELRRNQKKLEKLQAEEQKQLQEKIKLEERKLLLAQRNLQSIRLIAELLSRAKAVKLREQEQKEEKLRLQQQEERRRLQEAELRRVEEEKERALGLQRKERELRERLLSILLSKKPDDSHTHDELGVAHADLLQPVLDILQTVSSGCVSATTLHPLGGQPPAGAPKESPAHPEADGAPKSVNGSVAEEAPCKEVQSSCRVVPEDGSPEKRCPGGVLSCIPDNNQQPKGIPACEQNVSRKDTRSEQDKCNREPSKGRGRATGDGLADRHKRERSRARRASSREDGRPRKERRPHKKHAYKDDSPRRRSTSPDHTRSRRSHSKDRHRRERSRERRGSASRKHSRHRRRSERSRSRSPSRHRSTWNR
Summary of the method: (§1)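 In three independent experiments, Jurkat crude lysate made by Dounce homogenisation was treated for 10 min at room temperature and then 3 min at 37 °C with eight concentrations ranging from 0.1 to 10 mM. It was then solubilised with 0.8% NP40 plus benzonase for 60 min at 4 °C and ultracentrifuged. The supernatant was TMT-labelled for LC-MS/MS, and each value is the fold change against the detergent-processed vehicle for the same replicate, using vsn-normalised intensities.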

[1] = molecular target: T2, UniProt Q08170 and related entries
T2 sequence (whole entry): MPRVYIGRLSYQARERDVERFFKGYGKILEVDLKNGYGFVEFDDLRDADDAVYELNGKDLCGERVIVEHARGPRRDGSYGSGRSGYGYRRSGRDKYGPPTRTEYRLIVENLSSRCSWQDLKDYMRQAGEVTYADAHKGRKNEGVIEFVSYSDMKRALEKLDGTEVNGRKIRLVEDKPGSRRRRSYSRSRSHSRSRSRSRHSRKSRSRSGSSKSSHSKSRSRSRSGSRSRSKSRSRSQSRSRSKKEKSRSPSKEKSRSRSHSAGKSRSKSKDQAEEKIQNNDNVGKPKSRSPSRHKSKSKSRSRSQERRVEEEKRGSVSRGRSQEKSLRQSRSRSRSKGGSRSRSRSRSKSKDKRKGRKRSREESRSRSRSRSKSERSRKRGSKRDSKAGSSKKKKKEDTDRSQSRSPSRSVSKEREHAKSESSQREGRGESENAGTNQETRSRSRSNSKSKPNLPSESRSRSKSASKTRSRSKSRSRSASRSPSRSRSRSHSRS
Summary of the method: as §1

UniProt Q12974 = molecular target: T3, UniProt Q12974
T3 sequence (whole entry): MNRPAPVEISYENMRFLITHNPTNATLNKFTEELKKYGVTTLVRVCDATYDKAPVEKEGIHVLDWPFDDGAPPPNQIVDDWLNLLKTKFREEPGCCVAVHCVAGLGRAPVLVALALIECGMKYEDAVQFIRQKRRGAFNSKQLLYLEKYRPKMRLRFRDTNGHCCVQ
Summary of the method: as §1

[2] = molecular target: T4, UniProt Q13137 and related entries
T4 sequence (whole entry): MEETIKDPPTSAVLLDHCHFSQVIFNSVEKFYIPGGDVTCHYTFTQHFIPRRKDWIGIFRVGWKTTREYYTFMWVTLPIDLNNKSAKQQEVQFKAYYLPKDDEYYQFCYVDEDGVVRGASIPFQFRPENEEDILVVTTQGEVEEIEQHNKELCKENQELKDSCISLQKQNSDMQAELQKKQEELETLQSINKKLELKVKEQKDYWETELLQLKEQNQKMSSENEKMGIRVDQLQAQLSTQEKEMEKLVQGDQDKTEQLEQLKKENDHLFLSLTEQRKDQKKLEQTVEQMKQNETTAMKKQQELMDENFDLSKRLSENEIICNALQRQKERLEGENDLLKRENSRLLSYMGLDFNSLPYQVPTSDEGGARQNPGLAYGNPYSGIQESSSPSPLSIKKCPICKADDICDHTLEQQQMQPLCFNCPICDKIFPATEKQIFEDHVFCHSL
Summary of the method: as §1

[3] = molecular target: T5, UniProt Q13438-2|Q13438-3|Q13438-5|Q13438-6|Q13438-7
T5 sequence (whole entry): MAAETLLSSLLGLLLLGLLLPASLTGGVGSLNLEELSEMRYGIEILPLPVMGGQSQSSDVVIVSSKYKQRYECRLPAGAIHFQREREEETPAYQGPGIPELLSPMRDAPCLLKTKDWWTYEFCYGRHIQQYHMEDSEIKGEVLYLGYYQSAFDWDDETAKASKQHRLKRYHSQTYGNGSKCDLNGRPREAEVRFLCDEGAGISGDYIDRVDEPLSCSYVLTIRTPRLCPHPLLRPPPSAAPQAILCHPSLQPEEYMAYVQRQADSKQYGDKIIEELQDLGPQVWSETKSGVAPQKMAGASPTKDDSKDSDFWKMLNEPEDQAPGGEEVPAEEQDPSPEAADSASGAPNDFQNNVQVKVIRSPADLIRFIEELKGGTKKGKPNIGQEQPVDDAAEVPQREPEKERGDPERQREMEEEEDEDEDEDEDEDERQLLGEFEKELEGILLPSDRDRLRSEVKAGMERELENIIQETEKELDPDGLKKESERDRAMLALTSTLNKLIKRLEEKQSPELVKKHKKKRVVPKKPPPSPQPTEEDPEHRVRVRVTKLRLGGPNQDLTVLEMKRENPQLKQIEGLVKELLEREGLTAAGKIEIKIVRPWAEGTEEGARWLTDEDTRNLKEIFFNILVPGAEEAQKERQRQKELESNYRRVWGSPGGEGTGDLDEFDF
Summary of the method: as §1

[4] = molecular target: T6, UniProt Q13608 and related entries
T6 sequence (whole entry): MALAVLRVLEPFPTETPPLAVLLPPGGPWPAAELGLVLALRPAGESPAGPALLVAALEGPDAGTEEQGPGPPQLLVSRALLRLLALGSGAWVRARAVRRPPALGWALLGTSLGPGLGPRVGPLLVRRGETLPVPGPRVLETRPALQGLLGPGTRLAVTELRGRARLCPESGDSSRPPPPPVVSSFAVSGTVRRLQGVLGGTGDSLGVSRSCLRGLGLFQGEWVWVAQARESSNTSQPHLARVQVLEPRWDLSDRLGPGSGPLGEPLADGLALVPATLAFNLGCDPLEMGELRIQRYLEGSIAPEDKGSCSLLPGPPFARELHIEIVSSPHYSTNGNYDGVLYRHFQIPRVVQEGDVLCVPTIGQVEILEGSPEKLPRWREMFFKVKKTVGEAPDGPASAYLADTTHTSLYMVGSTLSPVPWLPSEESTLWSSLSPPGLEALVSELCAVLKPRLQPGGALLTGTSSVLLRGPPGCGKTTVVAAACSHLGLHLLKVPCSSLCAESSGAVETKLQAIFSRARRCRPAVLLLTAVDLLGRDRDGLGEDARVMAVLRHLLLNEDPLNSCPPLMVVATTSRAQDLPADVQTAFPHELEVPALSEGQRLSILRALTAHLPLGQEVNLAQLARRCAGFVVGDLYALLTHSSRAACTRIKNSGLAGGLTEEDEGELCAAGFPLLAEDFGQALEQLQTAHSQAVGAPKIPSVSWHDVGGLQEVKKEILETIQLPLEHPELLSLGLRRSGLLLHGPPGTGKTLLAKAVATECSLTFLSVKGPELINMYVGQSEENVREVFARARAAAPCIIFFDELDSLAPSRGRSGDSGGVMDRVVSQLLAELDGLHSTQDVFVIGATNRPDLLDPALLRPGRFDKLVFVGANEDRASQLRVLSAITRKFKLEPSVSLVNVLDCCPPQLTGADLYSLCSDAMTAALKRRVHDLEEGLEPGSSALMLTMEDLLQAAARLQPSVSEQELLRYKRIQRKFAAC
Summary of the method: as §1

## Nc1nc2c(ncn2[C@@H]2O[C@H](COP(=O)(O)OP(=O)(O)OP(=O)(O)O)[C@@H](O)[C@H]2O)c(=O)[nH]1 [guanosine triphosphate]
UniProt Q02040; concentration: 0.1mM
  NP40-soluble protein abundance: 1.05 ± 0.093
UniProt Q02040; concentration: 0.5mM
  NP40-soluble protein abundance: 1.1 ± 0.025
UniProt Q02040; concentration: 1mM
  NP40-soluble protein abundance: 1.09 ± 0.086
UniProt Q02040; concentration: 2mM
  NP40-soluble protein abundance: 1.23 ± 0.036
UniProt Q02040; concentration: 4mM
  NP40-soluble protein abundance: 1.31 ± 0.071
UniProt Q02040; concentration: 6mM
  NP40-soluble protein abundance: 1.36 ± 0.07
UniProt Q02040; concentration: 8mM
  NP40-soluble protein abundance: 1.39 ± 0.071
UniProt Q02040; concentration: 10mM
  NP40-soluble protein abundance: 1.48 ± 0.072
[1]; concentration: 0.1mM
  NP40-soluble protein abundance: 0.928 ± 0.042
[1]; concentration: 0.5mM
  NP40-soluble protein abundance: 1.23 ± 0.055
[1]; concentration: 1mM
  NP40-soluble protein abundance: 1.27 ± 0.028
[1]; concentration: 2mM
  NP40-soluble protein abundance: 1.15 ± 0.052
[1]; concentration: 4mM
  NP40-soluble protein abundance: 0.94 ± 0.034
[1]; concentration: 6mM
  NP40-soluble protein abundance: 1.09 ± 0.042
[1]; concentration: 8mM
  NP40-soluble protein abundance: 1.2 ± 0.053
[1]; concentration: 10mM
  NP40-soluble protein abundance: 1.08 ± 0.035
UniProt Q12974; concentration: 0.1mM
  NP40-soluble protein abundance: 0.958 ± 0.018
UniProt Q12974; concentration: 0.5mM
  NP40-soluble protein abundance: 0.957 ± 0.01
UniProt Q12974; concentration: 1mM
  NP40-soluble protein abundance: 0.896 ± 0.03
UniProt Q12974; concentration: 2mM
  NP40-soluble protein abundance: 0.902 ± 0.042
UniProt Q12974; concentration: 4mM
  NP40-soluble protein abundance: 0.875 ± 0.083
UniProt Q12974; concentration: 6mM
  NP40-soluble protein abundance: 0.866 ± 0.024
UniProt Q12974; concentration: 8mM
  NP40-soluble protein abundance: 0.821 ± 0.069
UniProt Q12974; concentration: 10mM
  NP40-soluble protein abundance: 0.84 ± 0.072
[2]; concentration: 0.1mM
  NP40-soluble protein abundance: 0.973 ± 0.053
[2]; concentration: 0.5mM
  NP40-soluble protein abundance: 0.941 ± 0.07
[2]; concentration: 1mM
  NP40-soluble protein abundance: 0.956 ± 0.098
[2]; concentration: 2mM
  NP40-soluble protein abundance: 0.912 ± 0.09
[2]; concentration: 4mM
  NP40-soluble protein abundance: 0.925 ± 0.097
[2]; concentration: 6mM
  NP40-soluble protein abundance: 0.914 ± 0.083
[2]; concentration: 8mM
  NP40-soluble protein abundance: 0.979 ± 0.066
[2]; concentration: 10mM
  NP40-soluble protein abundance: 0.936 ± 0.08
[3]; concentration: 0.1mM
  NP40-soluble protein abundance: 0.96 ± 0.024
[3]; concentration: 0.5mM
  NP40-soluble protein abundance: 0.965 ± 0.013
[3]; concentration: 1mM
  NP40-soluble protein abundance: 0.989 ± 0.028
[3]; concentration: 2mM
  NP40-soluble protein abundance: 0.978 ± 0.075
[3]; concentration: 4mM
  NP40-soluble protein abundance: 0.968 ± 0.012
[3]; concentration: 6mM
  NP40-soluble protein abundance: 0.957 ± 0.025
[3]; concentration: 8mM
  NP40-soluble protein abundance: 1.02 ± 0.076
[3]; concentration: 10mM
  NP40-soluble protein abundance: 1 ± 0.087
[4]; concentration: 0.1mM
  NP40-soluble protein abundance: 1.17 ± 0.11
[4]; concentration: 0.5mM
  NP40-soluble protein abundance: 1.24 ± 0.13
[4]; concentration: 1mM
  NP40-soluble protein abundance: 1.14 ± 0.19
[4]; concentration: 2mM
  NP40-soluble protein abundance: 1.22 ± 0.16
[4]; concentration: 4mM
  NP40-soluble protein abundance: 1.1 ± 0.1
[4]; concentration: 6mM
  NP40-soluble protein abundance: 1.17 ± 0.21
[4]; concentration: 8mM
  NP40-soluble protein abundance: 1.11 ± 0.12
[4]; concentration: 10mM
  NP40-soluble protein abundance: 1.23 ± 0.16
